These are literature values, as cited in patent US20230192715A1 (priority 2020, published 2023).

In the data set the test system is NE or 5-HT re-uptake. Particulars: Codd et al., 1995, cited from earlier work.

Read-outs that look alike come from different tables or passages of the source.

On to `CN1CC[C@@]23c4c5ccc(O)c4O[C@@H]2[C@H](O)C=C[C@@H]3[C@@H]1C5` [Levomorphine], for which the “action as NE or 5-HT re-uptake inhibitor” value is “no action as a NE or 5-HT re-uptake inhibitor”.
Consider `CN1CC[C@@]23c4c5ccc(O)c4O[C@@H]2[C@H](O)C=C[C@@H]3[C@@H]1C5` [d-Morphine], for which, where the note is “listed as Dextromorphine”, the “action as NE or 5-HT re-uptake inhibitor” value is “no actions as a NE or 5-HT re-uptake inhibitor”.
